From publication PMC6039025
No constants are given. Whether binding was seen depends on the method and setting. Some entries that bind do so weakly or less than the wild type. Tags and fused reporters may be left off the sequences shown. Each block holds one binder with its values, some of them ahead of it.

Target: T1, Smc4-L1333V-L1335A, 3xStrepTagII-tagged (S. cerevisiae) (UniProt Q12267)
T1 sequence: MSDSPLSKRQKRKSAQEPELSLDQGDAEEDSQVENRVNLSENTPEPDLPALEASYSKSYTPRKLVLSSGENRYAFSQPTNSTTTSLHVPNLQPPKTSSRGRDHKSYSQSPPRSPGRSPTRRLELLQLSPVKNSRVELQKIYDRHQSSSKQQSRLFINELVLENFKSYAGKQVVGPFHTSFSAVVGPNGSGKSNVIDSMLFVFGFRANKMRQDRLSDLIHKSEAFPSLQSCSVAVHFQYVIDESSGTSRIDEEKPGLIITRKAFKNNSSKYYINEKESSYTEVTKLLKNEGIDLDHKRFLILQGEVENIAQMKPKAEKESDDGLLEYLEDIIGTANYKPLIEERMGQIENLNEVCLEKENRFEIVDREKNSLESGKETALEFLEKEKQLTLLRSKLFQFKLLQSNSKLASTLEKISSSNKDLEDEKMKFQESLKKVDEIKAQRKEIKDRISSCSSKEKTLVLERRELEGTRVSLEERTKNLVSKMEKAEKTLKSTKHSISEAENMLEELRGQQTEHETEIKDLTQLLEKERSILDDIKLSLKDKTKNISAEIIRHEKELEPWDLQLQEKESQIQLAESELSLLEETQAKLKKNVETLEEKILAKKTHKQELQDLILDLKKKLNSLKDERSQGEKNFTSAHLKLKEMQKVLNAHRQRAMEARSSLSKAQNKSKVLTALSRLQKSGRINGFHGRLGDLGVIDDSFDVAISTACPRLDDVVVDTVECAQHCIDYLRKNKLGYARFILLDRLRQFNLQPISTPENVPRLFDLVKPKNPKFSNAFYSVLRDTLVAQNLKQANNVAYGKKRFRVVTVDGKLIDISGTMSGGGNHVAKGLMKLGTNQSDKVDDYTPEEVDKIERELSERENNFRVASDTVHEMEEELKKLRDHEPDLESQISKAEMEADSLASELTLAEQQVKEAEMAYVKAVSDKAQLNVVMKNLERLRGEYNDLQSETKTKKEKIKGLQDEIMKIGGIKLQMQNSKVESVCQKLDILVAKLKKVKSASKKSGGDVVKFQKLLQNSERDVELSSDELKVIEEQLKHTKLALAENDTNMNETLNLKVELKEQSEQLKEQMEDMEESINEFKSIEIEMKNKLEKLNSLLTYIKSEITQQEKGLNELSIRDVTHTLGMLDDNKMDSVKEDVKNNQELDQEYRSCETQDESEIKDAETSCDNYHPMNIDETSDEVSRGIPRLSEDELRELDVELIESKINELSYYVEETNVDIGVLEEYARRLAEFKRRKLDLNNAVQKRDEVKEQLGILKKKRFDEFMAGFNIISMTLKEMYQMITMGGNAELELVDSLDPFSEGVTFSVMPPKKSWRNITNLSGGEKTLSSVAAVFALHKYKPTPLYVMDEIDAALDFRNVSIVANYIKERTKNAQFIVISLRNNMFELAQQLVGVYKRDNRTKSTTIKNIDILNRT
Assay: tandem affinity co-purification (Ni-NTA, Strep-Trap) + SEC; five condensin subunits co-overexpressed in yeast; extract in 500 mM NaCl, 10 mM Tris-HCl pH 8.0, 10% glycerol; Ni-NTA (His tags on Brn1 and Ycg1), then Strep-Trap HP (3xStrepTagII on Smc4), then Superose 6 10/300 in 200 mM NaCl, 50 mM Tris-HCl pH 8.0; subunits seen by SDS-PAGE and Coomassie staining

- binding: binds
B1: Ycg1-3xFLAG-9xHIS (protein, UniProt Q06680 1-1035)
chain: MQDPDGIDINTKIFNSVAEVFQKAQGSYAGHRKHIAVLKKIQSKAVEQGYEDAFNFWFDKLVTKILPLKKNEIIGDRIVKLVAAFIASLERELILAKKQNYKLTNDEEGIFSRFVDQFIRHVLRGVESPDKNVRFRVLQLLAVIMDNIGEIDESLFNLLILSLNKRIYDREPTVRIQAVFCLTKFQDEEQTEHLTELSDNEENFEATRTLVASIQNDPSAEVRRAAMLNLINDNNTRPYILERARDVNIVNRRLVYSRILKSMGRKCFDDIEPHIFDQLIEWGLEDRELSVRNACKRLIAHDWLNALDGDLIELLEKLDVSRSSVCVKAIEALFQSRPDILSKIKFPESIWKDFTVEIAFLFRAIYLYCLDNNITEMLEENFPEASKLSEHLNHYILLRYHHNDISNDSQSHFDYNTLEFIIEQLSIAAERYDYSDEVGRRSMLTVVRNMLALTTLSEPLIKIGIRVMKSLSINEKDFVTMAIEIINDIRDDDIEKQEQEEKIKSKKINRRNETSVDEEDENGTHNDEVNEDEEDDNISSFHSAVENLVQGNGNVSESDIINNLPPEKEASSATIVLCLTRSSYMLELVNTPLTENILIASLMDTLITPAVRNTAPNIRELGVKNLGLCCLLDVKLAIDNMYILGMCVSKGNASLKYIALQVIVDIFSVHGNTVVDGEGKVDSISLHKIFYKVLKNNGLPECQVIAAEGLCKLFLADVFTDDDLFETLVLSYFSPINSSNEALVQAFAFCIPVYCFSHPAHQQRMSRTAADILLRLCVLWDDLQSSVIPEVDREAMLKPNIIFQQLLFWTDPRNLVNQTGSTKKDTVQLTFLIDVLKIYAQIEKKEIKKMIITNINAIFLSSEQDYSTLKELLEYSDDIAENDNLDNVSKNALDKLRNNLNSLIEEINERSETQTKDENNTANDQYSSILGNSFNKSSNDTIEHAADITDGNNTELTKTTVNISAVDNTTEQSNSRKRTRSEAEQIDTSKNLENMSIQDTSTVAKNVSFVLPDEKSDAMSIDEEDKDSESFSEVC

- binding: binds
B2: Brn1-3xHA-12xHIS (protein, UniProt P38170 1-754)
chain: MTTQLRYENNDDDERVEYNLFTNRSTMMANFEEWIKMATDNKINSRNSWNFALIDYFYDLDVLKDGENNINFQKASATLDGCIKIYSSRVDSVTTETGKLLSGLAQRKTNGASNGDDSNGGNGEGLGGDSDEANIEIDPLTGMPISNDPDVNNTRRRVYNRVLETTLVEFETIKMKELDQELIIDPLFKKALVDFDEGGAKSLLLNTLNIDNTARVIFDASIKDTQNVGQGKLQRKEEELIERDSLVDDENEPSQSLISTRNDSTVNDSVISAPSMEDEILSLGMDFIKFDQIAVCEISGSIEQLRNVVEDINQAKDFIENVNNRFDNFLTEEELQAAVPDNAEDDSDGFDMGMQQELCYPDENHDNTSHDEQDDDNVNSTTGSIFEKDLMAYFDENLNRNWRGREHWKVRNFKKANLVNKESDLLEETRTTIGDTTDKNTTDDKSMDTKKKHKQKKVLEIDFFKTDDSFEDKVFASKGRTKIDMPIKNRKNDTHYLLPDDFHFSTDRITRLFIKPGQKMSLFSHRKHTRGDVSSGLFEKSTVSANHSNNDIPTIADEHFWADNYERKEQEEKEKEQSKEVGDVVGGALDNPFEDDMDGVDFNQAFEGTDDNEEASVKLDLQDDEDHKFPIRENKVTYSRVSKKVDVRRLKKNVWRSINNLIQEHDSRKNREQSSNDSETHTEDESTKELKFSDIIQGISKMYSDDTLKDISTSFCFICLLHLANEHGLQITHTENYNDLIVNYEDLATTQAAS

- binding: binds
B3: Ycs4 (protein, UniProt Q06156 1-1176)
chain: MSGFSLSEYLTKFQTTDRESYPRLQDPSRELNVIIDQLAVSPEQIDASPDSLEALIDLCHDFPHLTPKLQTQLSYLISSSLSNLSKDIKANLSSNVNFTEIGGLIPQWKRHLEEYGYLIQVLLTFLQDELHKVSSQSTNLNRSAKNSKNDSANVELFKRDCNQMENLLESITKLLEINLSKIFQTTPEKDLFIGLFTRPLFVLLEIEPVTKVSSLKMFIQRILAMCVKNHGQSSSIQSSLMTNLTYFLHLSVFNAELLKLLNDEYNYPQLTEDILKEISTRVFNAKDTTGPKAISNFLIKLSELSPGIMLRQMNLVITLLNNSSITLRCSVVEACGNIVAELAQDPQTMEHYKQQIAVLIELLEERFQDSNPYVRTKAIQGCSKICDLSSKFNKSKAKFTSLAVRSLQDRSSLVRRNSVKLLSKLLLKHPFKAIHGSQLRLSEWEEYLKGSESQLNSTLKKVESQETLNDTIERSLIEEEVEQDEGQCRTELEGSFNKSAELSRIENEVENINATNTSVLMKLKLMIVYYKDAISFIKEIHKSIELISNLLFSKNRNEVLESMDFLVLADAFDIELSEFGIKKMLHLVWMKGTNDEGTSISVHLIECYKQLFLTAPDSCNMQEKAAHIAKNLINLSIGASIADLASLEQLLGMMYEQKLIDQHVINILWAIYNSASKASMQKEQNVNNRDSEKGFSKEQIHGSIIILGMLSLADNEIALKGLESLLNIGLGAVGLKDLTLCRYSCLALERMVPKRSTIITKAINQELEDVAVKKLYAIIINYTKDNEYYPMCEQALSALFTISSKPDILATDLIREKTMMTFGKPEEEDSILSLEQSSRVVSLSQLLFIVGQVAIKTLVYLEKCEAEFKKRKIEAETRNGKVKNQGADVTNTTQDNGGDKELEMIGGTNEDDFTDAIQFVKENELLFGEKSILGKFCPIVEEIVSNSSRFSDPMLQRTATLCLEKLMCLSSKYCEKSLPLLITVMEKSPDPTIRSNAVLGLGDMAVCFNNLVDENTDYLYRRLHDENLMVQRTCLMTVTFLILAGQVKVKGQLGEMAKCLDNPDQGISDMCRLFFTELASKDNAIYNGFIDIFSNLSSDDLLGKESFKKIIKFLLTFIDKERHQKQLNEKLVGRLRKCETQKQWDDIAFVLNNLPYKNEDVTALLEQGFKVVSAKE

- binding: binds
B4: Smc2 (protein, UniProt P38989 1-1170)
chain: MKVEELIIDGFKSYATRTVITDWDPQFNAITGLNGSGKSNILDAICFVLGIASMSTVRASSLQDLIYKRGQAGVTKASVTIVFDNTDKSNSPIGFTNSPQISVTRQVVLGGTSKYLINGHRAPQQSVLQLFQSVQLNINNPNFLIMQGKITKVLNMKPSEILSLIEEAAGTKMFEDRREKAERTMSKKETKLQENRTLLTEEIEPKLEKLRNEKRMFLEFQSTQTDLEKTERIVVSYEYYNIKHKHTSIRETLENGETRMKMLNEFVKKTSEEIDSLNEDVEEIKLQKEKELHKEGTISKLENKENGLLNEISRLKTSLSIKVENLNDTTEKSKALESEIASSSAKLIEKKSAYANTEKDYKMVQEQLSKQRDLYKRKEELVSTLTTGISSTGAADGGYNAQLAKAKTELNEVSLAIKKSSMKMELLKKELLTIEPKLKEATKDNELNVKHVKQCQETCDKLRARLVEYGFDPSRIKDLKQREDKLKSHYYQTCKNSEYLKRRVTNLEFNYTKPYPNFEASFVHGVVGQLFQIDNDNIRYATALQTCAGGRLFNVVVQDSQTATQLLERGRLRKRVTIIPLDKIYTRPISSQVLDLAKKIAPGKVELAINLIRFDESITKAMEFIFGNSLICEDPETAKKITFHPKIRARSITLQGDVYDPEGTLSGGSRNTSESLLVDIQKYNQIQKQIETIQADLNHVTEELQTQYATSQKTKTIQSDLNLSLHKLDLAKRNLDANPSSQIIARNEEILRDIGECENEIKTKQMSLKKCQEEVSTIEKDMKEYDSDKGSKLNELKKELKLLAKELEEQESESERKYDLFQNLELETEQLSSELDSNKTLLHNHLKSIESLKLENSDLEGKIRGVEDDLVTVQTELNEEKKRLMDIDDELNELETLIKKKQDEKKSSELELQKLVHDLNKYKSNTNNMEKIIEDLRQKHEFLEDFDLVRNIVKQNEGIDLDTYRERSKQLNEKFQELRKKVNPNIMNMIENVEKKEAALKTMIKTIEKDKMKIQETISKLNEYKRETLVKTWEKVTLDFGNIFADLLPNSFAKLVPCEGKDVTQGLEVKVKLGNIWKESLIELSGGQRSLIALSLIMALLQFRPAPMYILDEVDAALDLSHTQNIGHLIKTRFKGSQFIVVSLKEGMFANANRVFRTRFQDGTSVVSIM
